Laboratory results: patent US20070004634A1
No constants are given. Whether binding was seen depends on the method and setting. Some entries that bind do so weakly or less than the wild type.

Molecular target: soluble human insulin receptor-immunoglobulin heavy chain chimera (sIR-Fc; Bass et al., 1996) (human) (UniProt P06213)
Assay: FP competition with FITC-RP9

Binder | binding
FHENFYDWFVQRVSKK [H2C (D117), as listed in Tables 21 and 22] | binds
DYKDFYDAIDQLVRGSARAGGTRD [20E2 (D118)] | binds
CWARPCGDAANFYDWFVQQAS [C1 (D112)] | binds
